# Data from patent US20100292169A1, “METHODS AND COMPOSITIONS FOR REGULATING HDAC6 ACTIVITY” (Duke University, priority 2005, published 2010).
# Amino acid sequences for entries named in this document (tags omitted). A change or cut given only in a name is not applied to a line headed by its entry.
# UniProt P06537: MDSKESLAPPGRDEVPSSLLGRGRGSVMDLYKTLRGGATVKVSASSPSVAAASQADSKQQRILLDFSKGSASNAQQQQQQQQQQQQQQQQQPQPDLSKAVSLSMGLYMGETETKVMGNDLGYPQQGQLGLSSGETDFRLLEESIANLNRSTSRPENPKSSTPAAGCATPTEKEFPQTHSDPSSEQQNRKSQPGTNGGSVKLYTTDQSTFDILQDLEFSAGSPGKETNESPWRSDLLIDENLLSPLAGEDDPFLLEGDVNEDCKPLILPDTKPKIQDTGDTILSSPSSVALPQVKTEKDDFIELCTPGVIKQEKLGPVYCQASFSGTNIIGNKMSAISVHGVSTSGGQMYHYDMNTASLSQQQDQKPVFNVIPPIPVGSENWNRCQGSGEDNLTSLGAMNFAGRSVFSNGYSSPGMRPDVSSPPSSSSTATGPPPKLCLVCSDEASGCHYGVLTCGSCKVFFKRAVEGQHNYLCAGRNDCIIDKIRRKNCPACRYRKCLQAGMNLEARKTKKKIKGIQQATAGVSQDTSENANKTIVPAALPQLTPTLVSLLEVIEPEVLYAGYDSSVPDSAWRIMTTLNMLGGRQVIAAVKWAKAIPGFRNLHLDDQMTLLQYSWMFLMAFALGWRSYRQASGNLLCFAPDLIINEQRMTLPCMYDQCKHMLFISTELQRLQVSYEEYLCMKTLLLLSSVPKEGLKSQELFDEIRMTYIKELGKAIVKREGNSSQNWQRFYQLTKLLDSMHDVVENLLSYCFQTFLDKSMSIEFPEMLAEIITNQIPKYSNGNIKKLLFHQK
# UniProt P30947: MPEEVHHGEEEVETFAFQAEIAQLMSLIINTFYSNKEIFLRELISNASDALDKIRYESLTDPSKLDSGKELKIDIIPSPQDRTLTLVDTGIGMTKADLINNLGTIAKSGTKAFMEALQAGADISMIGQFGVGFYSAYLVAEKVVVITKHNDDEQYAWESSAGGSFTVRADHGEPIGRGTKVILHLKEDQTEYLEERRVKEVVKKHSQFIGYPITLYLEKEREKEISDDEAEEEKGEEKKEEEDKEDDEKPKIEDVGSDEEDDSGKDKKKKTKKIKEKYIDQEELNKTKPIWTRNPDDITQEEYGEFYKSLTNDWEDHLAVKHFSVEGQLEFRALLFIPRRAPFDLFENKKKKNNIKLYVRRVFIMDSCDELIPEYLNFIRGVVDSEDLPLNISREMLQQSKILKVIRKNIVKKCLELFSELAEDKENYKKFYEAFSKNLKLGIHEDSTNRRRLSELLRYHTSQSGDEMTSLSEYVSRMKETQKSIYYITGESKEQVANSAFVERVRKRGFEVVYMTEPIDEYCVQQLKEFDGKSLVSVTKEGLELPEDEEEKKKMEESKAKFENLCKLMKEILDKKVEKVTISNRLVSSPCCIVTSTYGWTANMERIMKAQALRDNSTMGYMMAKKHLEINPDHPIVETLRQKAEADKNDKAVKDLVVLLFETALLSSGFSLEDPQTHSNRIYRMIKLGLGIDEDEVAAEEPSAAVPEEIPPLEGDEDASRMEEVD
# Results are given in words; binding and its absence hold for the method and conditions named. Some binding calls cover weakened binding; strength is not graded here.
# Tests used:
# [1] = biological target: mouse glucocorticoid receptor (mGR), full length (mouse) (UniProt P06537); assay: mGR immune pellets incubated with rabbit reticulocyte lysate; GR-associated hsp90 and steroid binding
# [2] = biological target: mouse glucocorticoid receptor (mGR), full length (mouse) (UniProt P06537); assay: purified rabbit hsp90 added to HDAC6 knockdown cytosol; GR.hsp90 heterocomplex assembly on mGR immune pellets
substance,measurement,setting,value
"rabbit hsp90 (of rabbit reticulocyte lysate, or purified) (from UniProt P30947 2-726)",binding,[1],binds
same,binding,[2],binds
